For two substances, binding results are on record in article PMC6411202.

By UniProt entry, the sequences of proteins in these tests, tags left out.
UniProt Q92597: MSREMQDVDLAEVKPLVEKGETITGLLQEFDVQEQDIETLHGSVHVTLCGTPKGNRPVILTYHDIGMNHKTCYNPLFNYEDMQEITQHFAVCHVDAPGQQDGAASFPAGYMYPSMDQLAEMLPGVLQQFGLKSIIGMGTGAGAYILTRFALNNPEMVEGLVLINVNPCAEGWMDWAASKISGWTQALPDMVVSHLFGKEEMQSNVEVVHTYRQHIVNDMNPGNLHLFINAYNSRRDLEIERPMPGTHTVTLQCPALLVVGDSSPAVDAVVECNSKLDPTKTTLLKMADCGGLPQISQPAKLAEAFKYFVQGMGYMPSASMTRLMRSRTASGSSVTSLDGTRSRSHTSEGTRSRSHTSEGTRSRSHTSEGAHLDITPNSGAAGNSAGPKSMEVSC
UniProt P12004: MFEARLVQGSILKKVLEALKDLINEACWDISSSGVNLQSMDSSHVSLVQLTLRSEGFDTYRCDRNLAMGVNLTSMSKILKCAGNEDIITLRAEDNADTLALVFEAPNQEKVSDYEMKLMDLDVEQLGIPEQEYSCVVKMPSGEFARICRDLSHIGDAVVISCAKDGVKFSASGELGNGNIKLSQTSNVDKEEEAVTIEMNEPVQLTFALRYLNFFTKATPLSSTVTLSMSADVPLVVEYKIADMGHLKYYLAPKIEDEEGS

No constants are given. Whether binding was seen depends on the method and setting. Binding seen in cells or lysates may run through a third protein. Some binding calls cover weakened binding; strength is not graded here.

The target in experiment [1] is Strep-Flag-tagged NDRG1, transfected in HEK293T cells (human (cDNA from HEK293T)) (UniProt Q92597). Kind of experiment: co-IP; HEK293T transfected with Strep-Flag-NDRG1 and pcDNA3.1-PCNA (Fig 5C), or with these and HA-LANA (Fig 6C); M2-Flag beads; RIPA buffer (50 mM Tris-HCl pH 7.4, 150 mM NaCl, 0.5% Triton X-100); western blot. (In general: In western blotting, separated proteins are transferred to a membrane and probed.)

Experiment [2] has as its target GST-fused full-length NDRG1 (1-394 aa) (human (cDNA from HEK293T)) (UniProt Q92597). The experiment is described as follows: pull-down; GST-fused full-length NDRG1 on glutathione beads incubated with in vitro translated PCNA in RIPA buffer for 12 hr; western blot; only the target purified.

Take “PCNA from pcDNA3.1-PCNA, transfected in HEK293T cells (from UniProt P12004 1-261)”: in experiment [1], the binding entry was “binds”. “in vitro translated PCNA (from UniProt P12004 1-261)”: the binding entry in experiment [2] is “binds”.
